Reference: patent US20090191584, “Transcriptional repression of sodium-iodide symporter in thyroid carcinoma” (UNIVERSITY OF KENTUCKY RESEARCH FOUNDATION, published 2009)

Assays:
[1] = tested on: NIS-repressor complex (KAK-1 nuclear factors, contains PARP-1) (Homo sapiens); assay: EMSA; conditions: protein in an extract, protein details: KAK-1 nuclear extract, label: 32P
[2] = tested on: NIS-repressor complex (KAK-1 nuclear factors, contains PARP-1) (Homo sapiens); assay: competition with a labelled probe; conditions: protein in an extract, protein details: KAK-1 nuclear extract
[3] = tested on: NIS-repressor complex (NPA'87 nuclear factors) (Homo sapiens); assay: EMSA; conditions: protein in an extract; protein details: NPA'87 nuclear extract; label: 32P
[4] = tested on: NIS-repressor complex (KAK-1 nuclear factors, contains PARP-1) (Homo sapiens); assay: binding assay; conditions: UV crosslinking of 32P Comp-1, three specific regions on SDS-PAGE; protein in an extract; protein details: KAK-1 nuclear extract
[5] = 60x cold failed to compete, variant of Comp-1 (-653 to -615)
[6] = 60x cold competed effectively, variant of Comp-1 (-653 to -615)

Q: Does “CCCCGATACCACCCCCTGCAGCCACCCAGATAGCCTGTCCTGGCCTGTCTGTCCCAGTCCAGGGCTGAAAGGGTGCGGGTCCTGCCCGCCCCTAGGTCTGGAGGCGGAGTCGCGGTGACCCGGGAGCCCAATAAATCTGCAACCCACAATCACGAGCTGCTCCCGTAAGCCCCAAGGCGACCTCCA (double strand) [Probe B (-533 to -348 hNIS)]” bind ([1]; no specific shift)?
A: no binding

Q: Does “CAATTTCCCCACCTGTCAACAGCA / TGCTGTTGACAGGTGGGGGAAATTG [Comp-1.4 (-638 to -615)]” bind [2, 5]?
A: no binding

Q: Does “TTTTGAGCCTCAATTTCCCCACCT (double strand) [Comp-1.2 (-648 to -625)]” bind [2, 6]?
A: binds

Q: Does “AGAGATTGCCTGACGTCAGAGAGCTAG (double strand) [CREB oligo]” bind ([2]; 90x cold)?
A: no binding

Q: Does “AGCTGTGATCAGGGGATCACAGTGCATGGGGATGGGTGTGTGCATGGGGATGGAGGGGCATTTGGGAGCCCTCCCCGATACCACCCCCTGCAGCCACCCAGATAGCCTGTCCTGGCCTGTCTGTCCCAGTCCAGGGCTGAAAGGGTGCGGGTCCTGCCCGCCCCTAGGTCTGGAGGCGGAGTCGCGGTGACCCGGGAGCCCAATAAATCTGCAACCCACAATCACGAGCTGCTCCCGTAAGCCCCAAGGCGACCTCCA (double strand) [Probe D / competitor probe-2 (-605 to -348)]” bind ([2]; 20x cold failed to compete)?
A: no binding

Q: Does “AGCCTCAATTTCCCCACCTGTCAA (double strand) [Comp-1.3 (-643 to -620)]” bind [2, 6]?
A: binds

Q: Does “ATTCGATCGGGGCGGGGCGAGC (double strand) [Sp-1 oligo]” bind ([2]; 90x cold)?
A: no binding

Q: Does “CAGCTGCTCTATGAAGTGTGAAGAA (double strand) [Pax-8 oligo]” bind ([2]; 90x cold)?
A: no binding

Q: Does “GAGGGAGTTCCTGTGACTAGCAGAGAAAACAAAGTGAGCCAC (double strand) [TTF-2 oligo]” bind ([2]; 90x cold)?
A: no binding

Q: Does “AAGCAGGCTGTGCAGGCTTGGATAGTGACATGCCCTTTTTGAGCCTCAATTTCCCCACCTGTCAACAGCAGACAGTGACAGCTGTGATCAGGGGATCACAGTGCATGGGGATGGGTGTGT (double strand) [Probe A (-684 to -565 hNIS)]” bind [3]?
A: binds

Q: Does “AAGCAGGCTGTGCAGGCTTGGATAGTGACATGCCCTTTTTGAGCCTCAATTTCCCCACCTGTCAACAGCAGACAGTGACAGCTGTGATCAGGGGATCACAGTGCATGGGGATGGGTGTGT (double strand) [Probe A (-684 to -565 hNIS)]” bind ([1]; three specific bands, dose-related, competed by 20x cold probe, reduced about 50% by extra 0.2 M KCl)?
A: binds

Q: Does “GATCGAACTGACCGCCCGCGGCCCGT (double strand) [AP-2 oligo]” bind ([2]; 90x cold)?
A: no binding

Q: Does “GTGACATGCCCTTTTTGAGCCTCAATTTCCCCAC (double strand) [Comp-0.9 (-660 to -627)]” bind [2, 5]?
A: no binding

Q: Does “GCCCTTTTTGAGCCTCAATTTCCCCACCTGTCAACAGCA (double strand) [Comp-1 (-653 to -615)]” bind [4]?
A: binds

Q: Does “GCCCTTTTTGAGCCTCAATTTCCCCACCTGTCAACAGCA (double strand) [Comp-1 (-653 to -615)]” bind ([2]; 60x cold completely erased probe A shift)?
A: binds

Q: Does “CACTGCCCAGTCAAGTGGTTCTTGA (double strand) [TTF-1/Pax-8 oligo]” bind ([2]; 90x cold)?
A: no binding

Q: Does “TCCCCACCTGTCAACAGCAGACAGTGACAGCTGTGATCA (double strand) [Comp-2 (-633 to -595)]” bind ([2]; 60x and 90x cold failed to compete)?
A: no binding

Q: Does “GCCCTTTTTGAGCCTCAATTTCCC (double strand) [Comp-1.1 (-653 to -630)]” bind [2, 5]?
A: no binding

Q: Does “CGCTTGATGAGTCAGCCGGAA (double strand) [AP-1 (c-jun) oligo]” bind ([2]; 90x cold)?
A: no binding

Construct, isoform or probe ends are uncertain for at least one entry. Results from cells or extracts need not show a direct contact. For some of these results: No signal at the amounts used counts as a negative.
